Results taken from article PMC10931804.
Changes are numbered by the printed parent chain. Numbers in names are those of the source. No constants are given. Whether binding was seen depends on the method and setting. In cells and extracts the contact can be indirect. Some results given as binding are weak or reduced against the parent protein; the word gives no strength. Where a sequence is shown, tags or fusion partners need not be part of it.

Amino acid sequences for entries named in this document (tags omitted).
UniProt P18848: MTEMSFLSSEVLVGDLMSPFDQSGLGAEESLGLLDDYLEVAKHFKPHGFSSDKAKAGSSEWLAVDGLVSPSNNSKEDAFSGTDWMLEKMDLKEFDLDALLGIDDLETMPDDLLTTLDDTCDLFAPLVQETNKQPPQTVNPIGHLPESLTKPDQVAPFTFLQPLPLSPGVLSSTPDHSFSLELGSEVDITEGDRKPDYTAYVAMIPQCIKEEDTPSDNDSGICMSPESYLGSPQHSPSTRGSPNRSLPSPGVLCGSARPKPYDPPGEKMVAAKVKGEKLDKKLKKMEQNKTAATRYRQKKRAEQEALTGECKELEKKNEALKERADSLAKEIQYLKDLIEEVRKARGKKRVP

Molecular target: activating transcription factor 4 (ATF4) (UniProt P18848)
Test: co-IP; MC3T3-E1 cells 48 h after plasmid transfection, lysed in RIPA buffer with PMSF; 1 mg of protein with protein A + G-agarose beads at 4 °C overnight; blots with anti-TMEM119 and anti-ATF4; the precipitating antibody is not stated

B1: transmembrane protein 119 (TMEM119) mutant c.G143A, p.S48L, FLAG-tagged (pcDNA3.1-TMEM119-FLAG-MUT) (protein, UniProt Q4V9L6 26-283)
chain: RSVPLKATFLEDVAGSGEAEGSLASSPSLPPPWTPALSPTSMGPQPITLGGPSPPTNFLDGIVDFFRQYVMLIAVVGSLAFLLMFIVCAAVITRQKQKASAYYPSSFPKKKYVDQSDRAGGPRAFSEVPDRAPDSRPEEALDSSRQLQADILAATQNLKSPTRAALGGGDGARMVEGRGAEEEEKGSQEGDQEVQGHGVPVETPEAQEEPCSGVLEGAVVAGEGQGELEGSLLLAQEAQGPVGPPESPCACSSVHPSV
Question: How did the binding turn out when B1 was run?
Answer: binds

B2: transmembrane protein 119 (TMEM119), wild type, FLAG-tagged (pcDNA3.1-TMEM119-FLAG-WT) (protein, UniProt Q4V9L6 26-283)
chain: B1 chain with L23S
Question: How did the binding turn out when B2 was run?
Answer: binds
